The supplement of paper PMC8728848
Some of the results follow.

Experiments:
Assay in all cases: glycan array binding signal (z-score within array); higher = stronger binding
Conditions in all cases: glycan notation: IUPAC condensed, linker removed
[1] = molecular target: Fuc(a1-2)[Gal(a1-3)]Gal(b1-4)GlcNAc(b1-2)Man(a1-3)[Fuc(a1-2)[Gal(a1-3)]Gal(b1-4)GlcNAc(b1-2)Man(a1-6)]Man(b1-4)GlcNAc(b1-4)[Fuc(a1-6)]GlcNAc
Summary of the method: (§1)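 The Consortium for Functional Glycomics database supplied 3228 glycan arrays, of which those lacking an available protein sequence were dropped. The binding signal, a within-array Z-score, was averaged across arrays of the same protein sequence and across linkers. Negative scores can be read as non-binding.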

[2] = molecular target: Fuc(a1-2)[Gal(a1-3)]Gal(b1-4)GlcNAc(b1-3)GalNAc
Summary of the method: as §1

[3] = molecular target: Fuc(a1-2)[Gal(a1-3)]Gal(b1-4)GlcNAc(b1-3)[Fuc(a1-2)[Gal(a1-3)]Gal(b1-4)GlcNAc(b1-6)]GalNAc
Summary of the method: as §1

[4] = molecular target: Fuc(a1-2)[Gal(a1-3)]Gal(b1-4)GlcNAc(b1-6)GalNAc
Summary of the method: as §1

[5] = molecular target: Fuc(a1-2)[Gal(a1-3)]Gal(b1-4)[Fuc(a1-3)]Glc
Summary of the method: as §1

[6] = molecular target: Fuc(a1-2)[Gal(a1-3)]Gal(b1-4)[Fuc(a1-3)]GlcNAc
Summary of the method: as §1

[7] = molecular target: Fuc(a1-2)[Gal(a1-3)]Gal(b1-4)[Fuc(a1-3)]GlcNAc(b1-3)GalNAc
Summary of the method: as §1

[8] = molecular target: Fuc(a1-2)[Gal(a1-4)]Gal(b1-4)GlcNAc
Summary of the method: as §1

[9] = molecular target: Fuc(a1-2)[GalNAc(a1-3)]Gal
Summary of the method: as §1

[10] = molecular target: Fuc(a1-2)[GalNAc(a1-3)]Gal(b1-3)GalNAc(a1-3)[Fuc(a1-2)]Gal(b1-4)GlcNAc
Summary of the method: as §1

[11] = molecular target: Fuc(a1-2)[GalNAc(a1-3)]Gal(b1-3)GalNAc(b1-3)Gal(a1-4)Gal(b1-4)Glc
Summary of the method: as §1

[12] = molecular target: Fuc(a1-2)[GalNAc(a1-3)]Gal(b1-3)GlcNAc
Summary of the method: as §1

[13] = molecular target: Fuc(a1-2)[GalNAc(a1-3)]Gal(b1-3)GlcNAc(b1-2)Man(a1-3)[Fuc(a1-2)[GalNAc(a1-3)]Gal(b1-3)GlcNAc(b1-2)Man(a1-6)]Man(b1-4)GlcNAc(b1-4)GlcNAc
Summary of the method: as §1

[14] = molecular target: Fuc(a1-2)[GalNAc(a1-3)]Gal(b1-3)GlcNAc(b1-2)Man(a1-3)[Fuc(a1-2)[GalNAc(a1-3)]Gal(b1-3)GlcNAc(b1-2)Man(a1-6)]Man(b1-4)GlcNAc(b1-4)[Fuc(a1-6)]GlcNAc
Summary of the method: as §1

[15] = molecular target: Fuc(a1-2)[GalNAc(a1-3)]Gal(b1-3)GlcNAc(b1-3)GalNAc
Summary of the method: as §1

[16] = molecular target: Fuc(a1-2)[GalNAc(a1-3)]Gal(b1-3)GlcNAc(b1-6)GalNAc
Summary of the method: as §1

[17] = molecular target: Fuc(a1-2)[GalNAc(a1-3)]Gal(b1-4)Glc
Summary of the method: as §1

[18] = molecular target: Fuc(a1-2)[GalNAc(a1-3)]Gal(b1-4)GlcNAc
Summary of the method: as §1

[19] = molecular target: Fuc(a1-2)[GalNAc(a1-3)]Gal(b1-4)GlcNAc(b1-2)Man
Summary of the method: as §1

[20] = molecular target: Fuc(a1-2)[GalNAc(a1-3)]Gal(b1-4)GlcNAc(b1-2)Man(a1-3)[Fuc(a1-2)[GalNAc(a1-3)]Gal(b1-4)GlcNAc(b1-2)Man(a1-6)]Man(b1-4)GlcNAc(b1-4)GlcNAc
Summary of the method: as §1

[21] = molecular target: Fuc(a1-2)[GalNAc(a1-3)]Gal(b1-4)GlcNAc(b1-2)Man(a1-3)[Fuc(a1-2)[GalNAc(a1-3)]Gal(b1-4)GlcNAc(b1-2)Man(a1-6)]Man(b1-4)GlcNAc(b1-4)[Fuc(a1-6)]GlcNAc
Summary of the method: as §1

[22] = molecular target: Fuc(a1-2)[GalNAc(a1-3)]Gal(b1-4)GlcNAc(b1-3)Gal(b1-4)GlcNAc
Summary of the method: as §1

[23] = molecular target: Fuc(a1-2)[GalNAc(a1-3)]Gal(b1-4)GlcNAc(b1-3)Gal(b1-4)GlcNAc(b1-3)Gal(b1-4)GlcNAc
Summary of the method: as §1

[24] = molecular target: Fuc(a1-2)[GalNAc(a1-3)]Gal(b1-4)GlcNAc(b1-3)GalNAc
Summary of the method: as §1

[25] = molecular target: Fuc(a1-2)[GalNAc(a1-3)]Gal(b1-4)GlcNAc(b1-3)[Fuc(a1-2)[GalNAc(a1-3)]Gal(b1-4)GlcNAc(b1-6)]GalNAc
Summary of the method: as §1

[26] = molecular target: Fuc(a1-2)[GalNAc(a1-3)]Gal(b1-4)GlcNAc(b1-6)GalNAc
Summary of the method: as §1

[27] = molecular target: Fuc(a1-2)[GalNAc(a1-3)]Gal(b1-4)[Fuc(a1-3)]GlcNAc
Summary of the method: as §1

[28] = molecular target: Fuc(a1-2)[GalNAc(a1-3)]Gal(b1-4)[Fuc(a1-3)]GlcNAc(b1-3)GalNAc
Summary of the method: as §1

[29] = molecular target: Fuc(a1-2)[GalNAc(a1-4)]Gal(b1-4)GlcNAc
Summary of the method: as §1

[30] = molecular target: Fuc(a1-2)[GalNAc(b1-3)]Gal
Summary of the method: as §1

Fuc(a1-3)GlcNAc = molecular target: Fuc(a1-3)GlcNAc
Summary of the method: as §1

[31] = molecular target: Fuc(a1-3)[Gal(b1-4)]Glc6S
Summary of the method: as §1

[32] = molecular target: Fuc(a1-3)[Gal(b1-4)]GlcNAc
Summary of the method: as §1

[33] = molecular target: Fuc(a1-3)[Gal(b1-4)]GlcNAc(b1-2)Man
Summary of the method: as §1

[34] = molecular target: Fuc(a1-3)[Gal(b1-4)]GlcNAc(b1-2)Man(a1-3)[Fuc(a1-3)[Gal(b1-4)]GlcNAc(b1-2)Man(a1-6)]Man(b1-4)GlcNAc(b1-4)GlcNAc
Summary of the method: as §1

[35] = molecular target: Fuc(a1-3)[Gal(b1-4)]GlcNAc(b1-2)Man(a1-3)[Fuc(a1-3)[Gal(b1-4)]GlcNAc(b1-2)Man(a1-6)]Man(b1-4)GlcNAc(b1-4)[Fuc(a1-6)]GlcNAc
Summary of the method: as §1

[36] = molecular target: Fuc(a1-3)[Gal(b1-4)]GlcNAc(b1-3)Gal(b1-3)[Fuc(a1-4)]GlcNAc
Summary of the method: as §1

B1: EUL D1A (Oryza sativa) (protein)
chain: MFGFGHHHNQAPAAPSDPNQIFKIFCRANENYCLTVRDSAVVLAPVNPKDEHQHWFKDMRFSTKVKDGEGMPAFALVNKATGLAVKHSLGQSHPVKLVPFNPEYEDASVLWTESKDVGKGFRCIRMVNNTRLNLDAFHGDKDHGGVRDGTTVVLWEWCKGDNQSWKILPWGPEAHSSSPGAATACTIGGVPVHTVRVFSAAGEDYCLTVRNGTACLAPKNPRDDYQHWIKDMRHSNKIRDEEGYPAFALVNKVTGEAIKHSTGQGHPVKLVPYNPEYQDESVLWTESKDVGKGFRCIRMVNNIYLNFDAFHGDKDHGGIHDGTEIVLWKWCEGDNQRWKILPWILEQKLISEEDLNSAVDHHHHHH
- glycan array binding signal (z-score) [1]: 0.315
- glycan array binding signal (z-score) [2]: 0.848
- glycan array binding signal (z-score) [3]: -0.848
- glycan array binding signal (z-score) [4]: -0.876
- glycan array binding signal (z-score) [5]: -0.815
- glycan array binding signal (z-score) [6]: 0.298
- glycan array binding signal (z-score) [7]: -0.037
- glycan array binding signal (z-score) [8]: -0.433
- glycan array binding signal (z-score) [9]: -0.299
- glycan array binding signal (z-score) [10]: -0.028
- glycan array binding signal (z-score) [11]: 0.216
- glycan array binding signal (z-score) [12]: -0.152
- glycan array binding signal (z-score) [13]: -0.144
- glycan array binding signal (z-score) [14]: -0.33
- glycan array binding signal (z-score) [15]: 0.318
- glycan array binding signal (z-score) [16]: -0.533
- glycan array binding signal (z-score) [17]: 1.02
- glycan array binding signal (z-score) [18]: -1.24
- glycan array binding signal (z-score) [19]: -0.522
- glycan array binding signal (z-score) [20]: 0.177
- glycan array binding signal (z-score) [21]: -0.512
- glycan array binding signal (z-score) [22]: -1.06
- glycan array binding signal (z-score) [23]: 0.956
- glycan array binding signal (z-score) [24]: 0.622
- glycan array binding signal (z-score) [25]: -1.56
- glycan array binding signal (z-score) [26]: -0.238
- glycan array binding signal (z-score) [27]: -1.51
- glycan array binding signal (z-score) [28]: 0.783
- glycan array binding signal (z-score) [29]: -0.759
- glycan array binding signal (z-score) [30]: -0.263
- glycan array binding signal (z-score) (Fuc(a1-3)GlcNAc): -0.688
- glycan array binding signal (z-score) [31]: 1.6
- glycan array binding signal (z-score) [32]: -0.723
- glycan array binding signal (z-score) [33]: 1.65
- glycan array binding signal (z-score) [34]: -1.11
- glycan array binding signal (z-score) [35]: 0.635
- glycan array binding signal (z-score) [36]: -1.37
